# Patent EP3845222A1, “MICROENCAPSULATED FORMULATION COMPRISING DIOSMIN, TROXERUTIN AND COUMARINS, COMPOSITIONS THEREOF AND USE THEREOF FOR THE TREATMENT OF CIRCULATORY DISORDERS” (Pharma Line S.r.l., priority 2019, dated 2021)
# At least one compound was matched to its structure with a doubt left.
# Key:
# TNF-α = test: In vivo ligated saphenous vein damage: TNF-α quantification by ELISA; parameters: species or system NMRI mice; details: ligated saphenous veins, mice, treated 7 days
# IL-1β = test: In vivo ligated saphenous vein damage: IL-1β quantification by ELISA; parameters: species or system NMRI mice; details: ligated saphenous veins, mice, treated 7 days
smiles,measurement,setting,value
CCC(C)(C)C(=O)O[C@H]1C[C@@H](C)C=C2C=C[C@H](C)[C@H](CC[C@@H]3C[C@@H](O)CC(=O)O3)[C@H]21 [Simvastatin],quantification of TNF-α,TNF-α,significant decrease
same,quantification of IL-1β,IL-1β,significant decrease
